From US20250235458A1, “Benzimidazole derivatives for use in the treatment or prevention of a histiocytosis or a craniopharyngioma” (UNIVERSITE CLAUDE BERNARD LYON 1, priority 2021, published 2025)
At least one structure is not confirmed: it was looked up by name or label, or the drawing left a doubt.

Experiments:
MutuDC1940 cells [1] = assay: Proliferation assay (confluence by Incucyte); format: cell-based, murine
Procedure: (§1) 1.5×10^4 cells (MutuDC1940) were plated onto 96 wells plates. Next day, cells were treated at 8 μM of compound 6 or vemurafenib or with the vehicle (DMSO) in presence of 0.3 μg/ml of propidium iodide (Sigma) to detect cell death. Proliferation and cell death were quantified by Incucyte® (Essen Biosciences) according to manufacturer's instructions over 48 h.
The results obtained for the proliferation assay are presented on FIG. 2. FIG. 2 presents the confluence, i.e. the percentage of the surface of the culture dish that is covered by the cells, observed during time for a culture of MutuDC1940 cells, a murine model of histiocytosis, treated at 8 μM with compound 6 according to the invention or with vemurafenib (a MAPK/BRAF inhibitor), or with the vehicle (DMSO).
(§2) The same experiments regarding cell proliferation (assessed by confluence in %) and cell death (assessed by number of dead cells on 13 mm^2) as in Example 1 were repeated with additional ERK/MyD88 inhibitors of formula (I): compounds 2, 7 and 17.
(§3) The same experiments regarding cell proliferation (assessed by confluence in %) and cell death (assessed by number of dead cells on 13 mm^2) as in Example 1 were repeated with a lower concentration, which corresponds to the IC50 of vemurafenib (BRAF inhibitor).

MutuDC1940 cells [2] = assay: Cell death assay (propidium iodide, number of dead cells by Incucyte); format: cell-based, murine
Procedure: as §1
The results obtained for the cell death assay are presented on FIG. 3. FIG. 3 presents the number of dead cells observed during time for a culture of MutuDC1940 cells, a murine model of histiocytosis, treated at 8 μM with compound 6 according to the invention or with vemurafenib (a MAPK/BRAF inhibitor), or with the vehicle (DMSO).
as §2, §3

[3] = 8 μM, over 48 h, vs vehicle (DMSO)

| Compound | cell proliferation (confluence in %) (MutuDC1940 cells [1]; [3]) | cell proliferation (confluence in %) (MutuDC1940 cells [1]; vemurafenib at 0.8 μM (IC50 concentration), FIG. 7) | cell death (number of dead cells on 13 mm^2) (MutuDC1940 cells [2]; [3]) | cell death (number of dead cells on 13 mm^2) (MutuDC1940 cells [2]; vemurafenib at 0.8 μM (IC50 concentration), FIG. 8) | cell proliferation (confluence in %) (MutuDC1940 cells [1]; trametinib at 10 nM, FIG. 9) | cell death (number of dead cells on 13 mm^2) (MutuDC1940 cells [2]; trametinib at 10 nM, FIG. 10) |
| --- | --- | --- | --- | --- | --- | --- |
| CCCS(=O)(=O)Nc1ccc(F)c(C(=O)c2c[nH]c3ncc(-c4ccc(Cl)cc4)cc23)c1F [vemurafenib] | inhibits the proliferation of the cells | only inhibit proliferation | not the case | no effect on cell death |  |  |
| CC(=O)Nc1cccc(-n2c(=O)n(C3CC3)c(=O)c3c(Nc4ccc(I)cc4F)n(C)c(=O)c(C)c32)c1 [trametinib] |  |  |  |  | only inhibit proliferation | no effect on cell death |
